Source: the supplement of paper PMC12819154, “High-throughput peptide-centric local stability assay extends protein–ligand identification to membrane proteins, tissues and bacteria” (Nature Structural & Molecular Biology, 2025)
The entries are a selection whose mix differs from that of the whole data set. Most entries show no effect beyond the scatter of the controls.
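Also: lysate desalted by size exclusion to strip endogenous ATP, peptide intensities built from DIA-NN precursor signals, and peptides missing any value discarded before comparison.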

Sequences of proteins named here, by UniProt entry; tags and fusion partners are left off. A change or cut given only in a name is not applied to a line headed by its entry.
UniProt P75869: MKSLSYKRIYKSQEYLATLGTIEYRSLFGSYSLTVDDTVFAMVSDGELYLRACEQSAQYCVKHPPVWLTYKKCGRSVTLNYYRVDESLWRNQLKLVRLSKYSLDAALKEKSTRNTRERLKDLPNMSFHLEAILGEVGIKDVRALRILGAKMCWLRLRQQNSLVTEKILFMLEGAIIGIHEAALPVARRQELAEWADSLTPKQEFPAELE
UniProt P76015: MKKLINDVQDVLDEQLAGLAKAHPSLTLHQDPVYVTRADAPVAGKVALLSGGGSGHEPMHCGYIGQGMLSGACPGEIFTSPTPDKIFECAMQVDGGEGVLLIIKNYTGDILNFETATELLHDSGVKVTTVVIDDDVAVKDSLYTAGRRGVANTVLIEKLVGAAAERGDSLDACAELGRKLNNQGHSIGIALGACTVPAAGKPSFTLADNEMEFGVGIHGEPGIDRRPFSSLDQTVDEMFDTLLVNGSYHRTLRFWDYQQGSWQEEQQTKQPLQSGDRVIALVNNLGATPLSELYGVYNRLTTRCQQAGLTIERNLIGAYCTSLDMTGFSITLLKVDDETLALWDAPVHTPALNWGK
UniProt P76190: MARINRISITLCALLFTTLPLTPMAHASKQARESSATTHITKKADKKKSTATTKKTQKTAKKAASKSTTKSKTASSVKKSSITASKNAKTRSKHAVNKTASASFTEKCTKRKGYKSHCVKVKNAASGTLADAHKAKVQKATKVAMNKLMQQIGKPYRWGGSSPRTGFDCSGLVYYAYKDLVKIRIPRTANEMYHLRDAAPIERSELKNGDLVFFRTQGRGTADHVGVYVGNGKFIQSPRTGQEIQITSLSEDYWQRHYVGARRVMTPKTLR
UniProt P76342: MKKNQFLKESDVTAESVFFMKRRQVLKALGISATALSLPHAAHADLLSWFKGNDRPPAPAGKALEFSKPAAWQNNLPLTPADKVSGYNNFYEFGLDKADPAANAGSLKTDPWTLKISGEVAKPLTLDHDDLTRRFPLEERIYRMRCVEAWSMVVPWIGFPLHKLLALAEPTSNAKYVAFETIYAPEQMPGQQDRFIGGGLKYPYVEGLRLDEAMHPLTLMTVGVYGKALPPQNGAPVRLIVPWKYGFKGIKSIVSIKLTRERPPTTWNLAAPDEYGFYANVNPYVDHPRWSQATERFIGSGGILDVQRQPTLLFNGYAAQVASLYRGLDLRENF
UniProt P75990: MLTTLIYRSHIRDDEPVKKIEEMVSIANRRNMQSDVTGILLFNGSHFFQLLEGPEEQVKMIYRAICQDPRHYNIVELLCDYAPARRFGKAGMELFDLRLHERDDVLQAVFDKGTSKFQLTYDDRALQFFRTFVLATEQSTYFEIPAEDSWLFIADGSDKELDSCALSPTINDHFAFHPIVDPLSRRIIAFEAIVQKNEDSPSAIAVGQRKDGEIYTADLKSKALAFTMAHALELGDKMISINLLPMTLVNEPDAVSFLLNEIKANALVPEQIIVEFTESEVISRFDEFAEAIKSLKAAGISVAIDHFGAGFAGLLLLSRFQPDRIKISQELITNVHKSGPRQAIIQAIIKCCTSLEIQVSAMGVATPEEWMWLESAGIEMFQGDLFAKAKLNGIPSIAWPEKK
UniProt P75734: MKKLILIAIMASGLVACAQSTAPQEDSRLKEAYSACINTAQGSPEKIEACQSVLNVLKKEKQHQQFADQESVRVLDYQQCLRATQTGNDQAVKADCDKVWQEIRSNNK
UniProt P76121: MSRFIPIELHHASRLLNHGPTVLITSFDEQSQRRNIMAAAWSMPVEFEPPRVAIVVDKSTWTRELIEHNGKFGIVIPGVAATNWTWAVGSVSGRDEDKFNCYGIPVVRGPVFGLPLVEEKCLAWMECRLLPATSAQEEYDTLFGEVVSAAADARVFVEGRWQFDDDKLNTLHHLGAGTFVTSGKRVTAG
UniProt P76549: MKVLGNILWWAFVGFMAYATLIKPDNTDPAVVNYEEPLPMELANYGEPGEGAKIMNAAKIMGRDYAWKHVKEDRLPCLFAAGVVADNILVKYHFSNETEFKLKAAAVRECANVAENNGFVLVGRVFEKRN
UniProt P76243: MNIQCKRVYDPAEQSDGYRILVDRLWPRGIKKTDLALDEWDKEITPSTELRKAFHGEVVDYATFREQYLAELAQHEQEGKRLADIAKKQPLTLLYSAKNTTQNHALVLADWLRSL
UniProt P75801: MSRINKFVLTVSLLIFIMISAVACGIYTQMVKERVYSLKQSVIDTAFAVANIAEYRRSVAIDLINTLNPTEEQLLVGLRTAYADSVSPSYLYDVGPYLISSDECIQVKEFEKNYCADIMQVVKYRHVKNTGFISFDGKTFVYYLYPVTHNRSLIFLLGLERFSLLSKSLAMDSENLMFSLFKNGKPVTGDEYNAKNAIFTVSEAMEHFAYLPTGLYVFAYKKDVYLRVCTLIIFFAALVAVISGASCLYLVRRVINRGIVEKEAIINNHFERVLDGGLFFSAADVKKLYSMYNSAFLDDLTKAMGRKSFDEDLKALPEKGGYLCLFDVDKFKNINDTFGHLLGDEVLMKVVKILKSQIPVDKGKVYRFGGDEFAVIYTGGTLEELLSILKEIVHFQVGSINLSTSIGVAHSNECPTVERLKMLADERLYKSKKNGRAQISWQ
UniProt P75849: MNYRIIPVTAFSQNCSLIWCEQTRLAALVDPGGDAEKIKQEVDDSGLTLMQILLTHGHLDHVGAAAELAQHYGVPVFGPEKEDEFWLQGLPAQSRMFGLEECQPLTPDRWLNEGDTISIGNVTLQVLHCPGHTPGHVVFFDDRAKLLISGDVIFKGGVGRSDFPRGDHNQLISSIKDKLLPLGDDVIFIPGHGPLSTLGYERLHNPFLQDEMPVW
UniProt P76083: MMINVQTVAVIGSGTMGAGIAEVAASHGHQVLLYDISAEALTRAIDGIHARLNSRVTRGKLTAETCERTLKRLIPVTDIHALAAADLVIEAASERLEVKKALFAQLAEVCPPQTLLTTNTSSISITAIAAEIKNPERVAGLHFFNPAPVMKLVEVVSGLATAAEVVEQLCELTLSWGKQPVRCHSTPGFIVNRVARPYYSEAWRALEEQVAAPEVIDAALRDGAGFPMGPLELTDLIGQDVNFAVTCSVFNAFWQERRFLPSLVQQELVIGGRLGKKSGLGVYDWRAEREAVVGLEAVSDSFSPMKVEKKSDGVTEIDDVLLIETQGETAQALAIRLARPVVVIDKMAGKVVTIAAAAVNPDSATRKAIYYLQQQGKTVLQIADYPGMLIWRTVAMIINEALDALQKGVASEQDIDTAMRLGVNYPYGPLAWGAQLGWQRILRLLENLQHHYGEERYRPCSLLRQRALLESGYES
UniProt P76192: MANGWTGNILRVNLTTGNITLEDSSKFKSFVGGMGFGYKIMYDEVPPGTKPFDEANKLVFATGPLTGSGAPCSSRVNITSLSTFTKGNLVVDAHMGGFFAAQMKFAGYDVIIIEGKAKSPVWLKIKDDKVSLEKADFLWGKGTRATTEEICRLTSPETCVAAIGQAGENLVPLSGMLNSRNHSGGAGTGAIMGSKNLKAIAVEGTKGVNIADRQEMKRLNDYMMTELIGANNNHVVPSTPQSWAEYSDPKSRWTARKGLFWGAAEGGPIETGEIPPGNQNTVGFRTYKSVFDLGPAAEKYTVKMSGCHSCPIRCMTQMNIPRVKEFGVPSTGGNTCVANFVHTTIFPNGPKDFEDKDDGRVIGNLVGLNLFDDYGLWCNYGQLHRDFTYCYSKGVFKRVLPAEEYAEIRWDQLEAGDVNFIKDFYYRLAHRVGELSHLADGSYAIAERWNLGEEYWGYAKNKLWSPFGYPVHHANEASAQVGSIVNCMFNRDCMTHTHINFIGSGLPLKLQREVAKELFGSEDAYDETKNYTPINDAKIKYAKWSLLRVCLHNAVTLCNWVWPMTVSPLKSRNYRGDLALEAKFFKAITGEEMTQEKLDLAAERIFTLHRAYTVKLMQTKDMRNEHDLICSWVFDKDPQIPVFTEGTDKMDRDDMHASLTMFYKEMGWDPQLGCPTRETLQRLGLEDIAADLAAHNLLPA
UniProt P76254: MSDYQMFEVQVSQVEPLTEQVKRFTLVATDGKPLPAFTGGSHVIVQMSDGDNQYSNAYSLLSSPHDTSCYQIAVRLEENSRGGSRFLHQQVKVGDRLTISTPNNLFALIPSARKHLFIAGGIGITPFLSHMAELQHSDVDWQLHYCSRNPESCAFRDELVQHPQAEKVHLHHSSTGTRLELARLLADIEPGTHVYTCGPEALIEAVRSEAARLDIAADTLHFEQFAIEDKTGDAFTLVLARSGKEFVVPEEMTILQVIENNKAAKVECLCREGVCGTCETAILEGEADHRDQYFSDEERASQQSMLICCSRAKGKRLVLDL
UniProt P75820: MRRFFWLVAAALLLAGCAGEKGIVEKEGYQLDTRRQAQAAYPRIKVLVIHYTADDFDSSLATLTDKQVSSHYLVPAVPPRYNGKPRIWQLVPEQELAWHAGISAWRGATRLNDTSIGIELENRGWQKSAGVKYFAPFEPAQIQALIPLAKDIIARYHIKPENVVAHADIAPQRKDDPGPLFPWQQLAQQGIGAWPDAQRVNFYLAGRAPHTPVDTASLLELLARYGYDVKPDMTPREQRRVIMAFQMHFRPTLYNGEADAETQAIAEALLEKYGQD
UniProt P76361: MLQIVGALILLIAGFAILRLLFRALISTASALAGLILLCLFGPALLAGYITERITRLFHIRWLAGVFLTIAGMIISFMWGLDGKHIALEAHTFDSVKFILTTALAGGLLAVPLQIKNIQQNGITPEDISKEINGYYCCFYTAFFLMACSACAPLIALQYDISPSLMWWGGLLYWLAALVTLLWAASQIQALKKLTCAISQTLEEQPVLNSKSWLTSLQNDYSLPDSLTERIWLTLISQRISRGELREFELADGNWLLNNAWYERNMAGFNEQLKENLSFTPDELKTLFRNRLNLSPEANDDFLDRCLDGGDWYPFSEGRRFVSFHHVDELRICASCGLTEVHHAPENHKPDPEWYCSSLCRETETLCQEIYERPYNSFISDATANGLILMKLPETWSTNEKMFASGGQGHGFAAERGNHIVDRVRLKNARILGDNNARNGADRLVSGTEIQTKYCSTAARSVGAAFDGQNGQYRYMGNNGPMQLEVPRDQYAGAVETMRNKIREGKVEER
UniProt P76445: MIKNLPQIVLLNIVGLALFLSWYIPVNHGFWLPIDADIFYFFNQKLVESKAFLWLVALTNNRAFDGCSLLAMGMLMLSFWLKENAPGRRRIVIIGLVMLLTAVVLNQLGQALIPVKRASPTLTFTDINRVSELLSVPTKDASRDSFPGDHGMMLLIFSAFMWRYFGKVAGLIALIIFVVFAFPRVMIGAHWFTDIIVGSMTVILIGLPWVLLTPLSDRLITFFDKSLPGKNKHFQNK
UniProt P76227: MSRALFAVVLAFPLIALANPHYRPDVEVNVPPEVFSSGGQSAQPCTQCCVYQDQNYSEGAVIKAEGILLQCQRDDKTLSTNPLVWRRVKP
UniProt P76372: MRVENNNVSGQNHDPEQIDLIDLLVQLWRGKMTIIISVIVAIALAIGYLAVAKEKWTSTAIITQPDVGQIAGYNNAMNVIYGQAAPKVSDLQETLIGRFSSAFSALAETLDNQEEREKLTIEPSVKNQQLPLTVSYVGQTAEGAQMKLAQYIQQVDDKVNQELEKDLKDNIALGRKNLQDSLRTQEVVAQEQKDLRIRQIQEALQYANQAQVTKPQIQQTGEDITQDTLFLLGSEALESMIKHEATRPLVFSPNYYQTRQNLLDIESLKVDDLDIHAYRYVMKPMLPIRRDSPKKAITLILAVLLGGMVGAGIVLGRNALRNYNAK
UniProt P76008: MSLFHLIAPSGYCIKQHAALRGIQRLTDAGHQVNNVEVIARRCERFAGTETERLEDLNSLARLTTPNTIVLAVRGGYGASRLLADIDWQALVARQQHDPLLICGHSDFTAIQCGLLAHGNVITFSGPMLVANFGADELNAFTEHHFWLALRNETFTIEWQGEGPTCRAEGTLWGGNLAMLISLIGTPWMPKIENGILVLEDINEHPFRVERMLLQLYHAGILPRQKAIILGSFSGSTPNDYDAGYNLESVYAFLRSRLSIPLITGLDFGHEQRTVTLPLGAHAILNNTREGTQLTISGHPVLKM
UniProt P76586: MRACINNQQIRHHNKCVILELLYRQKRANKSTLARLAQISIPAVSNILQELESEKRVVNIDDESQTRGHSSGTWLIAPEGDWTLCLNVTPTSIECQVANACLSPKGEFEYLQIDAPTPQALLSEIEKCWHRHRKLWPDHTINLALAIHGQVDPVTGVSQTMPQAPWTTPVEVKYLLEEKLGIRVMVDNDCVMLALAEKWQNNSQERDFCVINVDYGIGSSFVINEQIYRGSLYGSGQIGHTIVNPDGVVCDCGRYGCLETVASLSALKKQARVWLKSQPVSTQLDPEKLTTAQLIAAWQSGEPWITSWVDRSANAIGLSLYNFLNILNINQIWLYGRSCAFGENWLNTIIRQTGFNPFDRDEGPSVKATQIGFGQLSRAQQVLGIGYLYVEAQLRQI
UniProt P76270: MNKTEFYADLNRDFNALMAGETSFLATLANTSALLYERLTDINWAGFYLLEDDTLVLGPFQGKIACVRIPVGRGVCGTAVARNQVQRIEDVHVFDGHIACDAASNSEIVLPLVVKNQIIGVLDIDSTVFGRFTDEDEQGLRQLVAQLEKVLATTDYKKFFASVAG

These targets were tested with Nc1ncnc2c1ncn2[C@@H]1O[C@H](COP(=O)(O)OP(=O)(O)OP(=O)(O)O)[C@@H](O)[C@H]1O [adenosine 5'-triphosphate] (assay: log2 fold change of tryptic peptide abundance, ligand vs vehicle (limited proteolysis) (log2 ratio); higher = more trypsin-susceptible (destabilized)). Settings: ligand concentration: 5 mM; sample: E. coli desalted lysate; replicate design: treated before aliquoting.
Procedure: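 HT-PELSA: desalted E. coli K-12 BW25113 lysate (with 12 mM MgCl2) incubated with 5 mM ATP (pH 7) or water for 30 min at 25 C, then a 4 min trypsin pulse at 22 C. Peptides were quantified by DIA-MS (4 replicates). Value is the peptide log2 fold change (treated/control); negative = stabilized. Scale: negative = ligand-stabilized region.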
“UniProt P76176 (peptide sequence: YEIHDIEGR, peptide start residue: 111)” showed a log2 fold change of -0.336.
“UniProt P75869 (peptide sequence: LSKYSLDAALKEK, peptide start residue: 98)” showed a log2 fold change of 1.06.
“UniProt P69922 (peptide sequence: YGEDENNK, peptide start residue: 240)” was tested, and the log2 fold change was -0.328.
For “UniProt P76015 (peptide sequence: AHPSLTLHQDPVYVTR, peptide start residue: 22)”, the log2 fold change was -1.08.
“UniProt P75791 (peptide sequence: AGHVTAEQR, peptide start residue: 71)” gave a log2 fold change of 0.439.
Target “UniProt P76190 (peptide sequence: GTADHVGVYVGNGK, peptide start residue: 220)” has a log2 fold change of 1.11.
Work on “UniProt P76342 (peptide sequence: GNDRPPAPAGK, peptide start residue: 52)” yielded a log2 fold change of -0.445.
Target “UniProt P75990 (peptide sequence: NEDSPSAIAVGQR, peptide start residue: 197)” has a log2 fold change of 0.384.
In the case of “UniProt P76417 (peptide sequence: DIALTQGEVK, peptide start residue: 416)”, the log2 fold change is reported as -0.0327.
Work on “UniProt P76204 (peptide sequence: AVFDGLFTR, peptide start residue: 153)” yielded a log2 fold change of 0.339.
With “UniProt P75691 (peptide sequence: QPLEPMDITR, peptide start residue: 13)” the log2 fold change was 0.205.
Work on “UniProt P75764 (peptide sequence: AALDNPGTTFK, peptide start residue: 701)” yielded a log2 fold change of -0.557.
“UniProt P76633 (peptide sequence: VLDHIPANR, peptide start residue: 217)” was tested, and the log2 fold change was -0.294.
“UniProt P76461 (peptide sequence: ANSTAEALGALRPAFDK, peptide start residue: 222)” was tested, and the log2 fold change was 0.51.
“UniProt P75992 (peptide sequence: SAEEDAFRR, peptide start residue: 42)” showed a log2 fold change of 0.68.
Work on “UniProt P76108 (peptide sequence: AQHSLIHR, peptide start residue: 227)” yielded a log2 fold change of 0.505.
“UniProt P75734 (peptide sequence: VLDYQQCLR, peptide start residue: 74)” gave a log2 fold change of 0.394.
“UniProt P76121 (peptide sequence: CLAWMECR, peptide start residue: 121)” gave a log2 fold change of -0.498.
In the case of “UniProt P75818 (peptide sequence: ELLTNDPFSSR, peptide start residue: 86)”, the log2 fold change is reported as 0.304.
“UniProt P76549 (peptide sequence: YHFSNETEFK, peptide start residue: 92)” was tested, and the log2 fold change was -0.219.
In the case of “UniProt P76243 (peptide sequence: KAFHGEVVDYATFR, peptide start residue: 52)”, the log2 fold change is reported as -0.292.
For “UniProt P76213 (peptide sequence: EQQPLFNK, peptide start residue: 101)”, the log2 fold change was -0.674.
Work on “UniProt P75801 (peptide sequence: KSFDEDLK, peptide start residue: 307)” yielded a log2 fold change of -0.774.
Work on “UniProt P75849 (peptide sequence: LLISGDVIFK, peptide start residue: 146)” yielded a log2 fold change of 0.35.
For “UniProt P76083 (peptide sequence: GKLTAETCER, peptide start residue: 59)”, the log2 fold change was -0.4.
In the case of “UniProt P76192 (peptide sequence: NYTPINDAK, peptide start residue: 530)”, the log2 fold change is reported as -0.352.
With “UniProt P75839 (peptide sequence: CANPEWTK, peptide start residue: 215)” the log2 fold change was 0.536.
“UniProt P76254 (peptide sequence: ASQQSMLICCSRAK, peptide start residue: 300)” gave a log2 fold change of -0.666.
In the case of “UniProt P77181 (peptide sequence: RLVFDENLRPK, peptide start residue: 185)”, the log2 fold change is reported as -0.426.
“UniProt P76520 (peptide sequence: QYYEANLALK, peptide start residue: 186)” gave a log2 fold change of -0.132.
“UniProt P75820 (peptide sequence: EGYQLDTR, peptide start residue: 27)” showed a log2 fold change of -0.246.
“UniProt P76361 (peptide sequence: ILGDNNAR, peptide start residue: 431)” was tested, and the log2 fold change was 0.239.
With “UniProt P76445 (peptide sequence: VSELLSVPTK, peptide start residue: 130)” the log2 fold change was 0.284.
Work on “UniProt P76227 (peptide sequence: AEGILLQCQRDDK, peptide start residue: 64)” yielded a log2 fold change of -0.474.
“UniProt P76372 (peptide sequence: QNLLDIESLKVDDLDIHAYR, peptide start residue: 260)” was tested, and the log2 fold change was 0.439.
In the case of “UniProt P76008 (peptide sequence: LTDAGHQVNNVEVIAR, peptide start residue: 26)”, the log2 fold change is reported as -0.0947.
For “UniProt P76586 (peptide sequence: VVNIDDESQTR, peptide start residue: 57)”, the log2 fold change was -0.282.
Work on “UniProt P76234 (peptide sequence: AINACEASLR, peptide start residue: 91)” yielded a log2 fold change of -0.642.
In the case of “UniProt P75823 (peptide sequence: EAWEFTR, peptide start residue: 151)”, the log2 fold change is reported as -0.4.
“UniProt P76270 (peptide sequence: VLATTDYKK, peptide start residue: 150)” showed a log2 fold change of 0.283.
